For test [1], the target named is T1, biotinylated recombinant HDA6 protein (HDA6-6xHis-bls) (Arabidopsis thaliana) (UniProt Q9FML2).
T1 sequence (chain, biotin (at the biotin ligation site)): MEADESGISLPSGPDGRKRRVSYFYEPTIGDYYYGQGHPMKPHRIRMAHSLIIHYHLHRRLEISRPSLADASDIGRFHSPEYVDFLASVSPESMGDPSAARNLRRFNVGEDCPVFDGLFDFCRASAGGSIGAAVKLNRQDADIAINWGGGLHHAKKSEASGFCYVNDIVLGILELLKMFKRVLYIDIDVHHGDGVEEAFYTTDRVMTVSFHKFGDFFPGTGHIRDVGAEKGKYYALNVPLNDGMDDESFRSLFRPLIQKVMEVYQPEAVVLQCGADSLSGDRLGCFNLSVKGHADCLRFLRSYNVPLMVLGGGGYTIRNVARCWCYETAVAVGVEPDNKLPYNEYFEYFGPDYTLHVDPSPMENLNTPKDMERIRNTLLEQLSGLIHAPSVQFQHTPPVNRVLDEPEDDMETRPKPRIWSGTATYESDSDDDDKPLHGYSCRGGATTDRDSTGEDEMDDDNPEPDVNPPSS
Kind of test: AlphaScreen or HTRF; in vitro; biotinylated HDA6 and FLAG-conjugated TPL/TPR made by cell-free protein synthesis; luminescence compared to FLAG-GFP control; method after Yano et al. 2016. (In Alpha technology, singlet oxygen from a donor bead excites a nearby acceptor bead.)

Protein sequences, listed by entry. Tags and fused reporters are not part of them.
UniProt Q8L9K1: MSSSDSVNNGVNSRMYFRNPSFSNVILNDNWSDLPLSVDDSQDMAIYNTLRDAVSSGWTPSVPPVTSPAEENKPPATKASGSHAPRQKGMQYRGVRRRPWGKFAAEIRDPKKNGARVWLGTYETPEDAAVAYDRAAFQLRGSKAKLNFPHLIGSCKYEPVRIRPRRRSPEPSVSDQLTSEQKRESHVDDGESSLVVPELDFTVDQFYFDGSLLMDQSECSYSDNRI

For test [2], the target named is T2, HDA6 fused to the N-terminal fragment of Venus (Arabidopsis thaliana) (UniProt Q9FML2).
T2 sequence: T1 sequence (chain, biotin (at the biotin ligation site))
Kind of test: split reporter; BiFC with nVenus and cVenus fusions co-expressed in N. benthamiana leaf cells by agroinfiltration, 48 h at 24 °C, fluorescence microscopy, DAPI for nuclei.

Test [3] concerns the target ERF13 fused to the N-terminal fragment of Venus (Arabidopsis thaliana) (UniProt Q8L9K1). The description is as above.

These are yes or no findings as the source states them, for the method shown. For part of these data: Binding seen in cells or lysates may run through a third protein. Some binding calls cover weakened binding; strength is not graded here. Where a sequence is shown, tags or fusion partners need not be part of it.

From PMC11963488 come the findings set out here.

B1: FLAG-conjugated TPL (protein, UniProt Q94AI7 1-1131)
chain: MSSLSRELVFLILQFLDEEKFKETVHKLEQESGFFFNMKYFEDEVHNGNWDEVEKYLSGFTKVDDNRYSMKIFFEIRKQKYLEALDKHDRPKAVDILVKDLKVFSTFNEELFKEITQLLTLENFRENEQLSKYGDTKSARAIMLVELKKLIEANPLFRDKLQFPTLRNSRLRTLINQSLNWQHQLCKNPRPNPDIKTLFVDHSCGPPNGARAPSPVNNPLLGGIPKAGGFPPLGAHGPFQPTASPVPTPLAGWMSSPSSVPHPAVSAGAIALGGPSIPAALKHPRTPPTNASLDYPSADSEHVSKRTRPMGISDEVNLGVNMLPMSFSGQAHGHSPAFKAPDDLPKTVARTLSQGSSPMSMDFHPIKQTLLLVGTNVGDIGLWEVGSRERLVQKTFKVWDLSKCSMPLQAALVKEPVVSVNRVIWSPDGSLFGVAYSRHIVQLYSYHGGEDMRQHLEIDAHVGGVNDISFSTPNKQLCVITCGDDKTIKVWDAATGVKRHTFEGHEAPVYSVCPHYKENIQFIFSTALDGKIKAWLYDNMGSRVDYDAPGRWCTTMAYSADGTRLFSCGTSKDGESFIVEWNESEGAVKRTYQGFHKRSLGVVQFDTTKNRYLAAGDDFSIKFWDMDAVQLLTAIDGDGGLQASPRIRFNKEGSLLAVSGNENVIKIMANSDGLRLLHTFENISSESSKPAINSIAAAAAAAATSAGHADRSANVVSIQGMNGDSRNMVDVKPVITEESNDKSKIWKLTEVSEPSQCRSLRLPENLRVAKISRLIFTNSGNAILALASNAIHLLWKWQRNERNATGKATASLPPQQWQPASGILMTNDVAETNPEEAVPCFALSKNDSYVMSASGGKISLFNMMTFKTMATFMPPPPAATFLAFHPQDNNIIAIGMDDSTIQIYNVRVDEVKSKLKGHSKRITGLAFSNVLNVLVSSGADAQLCVWNTDGWEKQRSKVLPLPQGRPNSAPSDTRVQFHQDQAHFLVVHETQLAIYETTKLECMKQWAVRESLAPITHATFSCDSQLVYASFMDATVCVFSSANLRLRCRVNPSAYLPASLSNSNVHPLVIAAHPQEPNMFAVGLSDGGVHIFEPLESEGKWGVAPPAENGSASGAPTAPSVGASASDQPQR
On to B1, for which the binding result in test [1] is reported as “binds”.

B2: TPL fused to the C-terminal fragment of Venus (protein, UniProt Q94AI7 1-1131)
chain: B1 chain
B2: the binding entry in test [2] and in test [3] was “binds” in each case.
